Laboratory results from article PMC3060874.
Results are given in words; binding and its absence hold for the method and conditions named. Binding seen in cells or lysates may run through a third protein. Some entries that bind do so weakly or less than the wild type.

Chains of the proteins cited; added tags and fusions are not shown. Lines headed by an entry give the natural chain unless they say otherwise; changes in a name come on top. A line that says so, or that is headed by a name, gives the form on record, which may keep a tag or linker.
UniProt O94953: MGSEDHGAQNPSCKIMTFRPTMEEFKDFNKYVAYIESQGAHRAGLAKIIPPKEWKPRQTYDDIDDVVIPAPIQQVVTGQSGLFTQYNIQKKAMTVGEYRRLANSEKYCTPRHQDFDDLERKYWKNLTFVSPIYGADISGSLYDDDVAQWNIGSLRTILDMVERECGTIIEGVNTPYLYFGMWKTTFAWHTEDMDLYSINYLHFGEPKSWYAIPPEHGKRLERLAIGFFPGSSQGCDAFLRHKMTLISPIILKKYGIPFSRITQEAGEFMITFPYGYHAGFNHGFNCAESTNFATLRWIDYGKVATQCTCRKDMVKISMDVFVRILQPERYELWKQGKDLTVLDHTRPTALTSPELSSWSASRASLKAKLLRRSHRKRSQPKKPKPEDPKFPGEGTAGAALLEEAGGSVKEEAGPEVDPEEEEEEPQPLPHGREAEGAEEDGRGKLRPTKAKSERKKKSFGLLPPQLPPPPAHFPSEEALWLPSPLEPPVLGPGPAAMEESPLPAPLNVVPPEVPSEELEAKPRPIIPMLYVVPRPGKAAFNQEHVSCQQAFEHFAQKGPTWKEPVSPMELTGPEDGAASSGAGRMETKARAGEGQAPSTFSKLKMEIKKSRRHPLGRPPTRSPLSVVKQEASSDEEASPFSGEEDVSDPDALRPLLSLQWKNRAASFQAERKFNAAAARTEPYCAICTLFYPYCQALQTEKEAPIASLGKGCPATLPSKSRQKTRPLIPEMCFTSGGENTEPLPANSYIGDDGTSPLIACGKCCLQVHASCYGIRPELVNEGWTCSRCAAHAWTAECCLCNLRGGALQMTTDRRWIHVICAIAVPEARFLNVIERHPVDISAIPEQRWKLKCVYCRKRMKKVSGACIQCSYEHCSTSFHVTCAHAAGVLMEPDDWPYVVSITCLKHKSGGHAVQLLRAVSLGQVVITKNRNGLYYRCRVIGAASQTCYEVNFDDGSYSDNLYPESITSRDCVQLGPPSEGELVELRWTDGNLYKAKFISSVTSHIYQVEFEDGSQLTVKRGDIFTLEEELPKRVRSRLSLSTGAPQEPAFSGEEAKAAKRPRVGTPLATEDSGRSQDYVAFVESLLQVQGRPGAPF
FLAG-ΔFeJMJD2B (O94953, form named): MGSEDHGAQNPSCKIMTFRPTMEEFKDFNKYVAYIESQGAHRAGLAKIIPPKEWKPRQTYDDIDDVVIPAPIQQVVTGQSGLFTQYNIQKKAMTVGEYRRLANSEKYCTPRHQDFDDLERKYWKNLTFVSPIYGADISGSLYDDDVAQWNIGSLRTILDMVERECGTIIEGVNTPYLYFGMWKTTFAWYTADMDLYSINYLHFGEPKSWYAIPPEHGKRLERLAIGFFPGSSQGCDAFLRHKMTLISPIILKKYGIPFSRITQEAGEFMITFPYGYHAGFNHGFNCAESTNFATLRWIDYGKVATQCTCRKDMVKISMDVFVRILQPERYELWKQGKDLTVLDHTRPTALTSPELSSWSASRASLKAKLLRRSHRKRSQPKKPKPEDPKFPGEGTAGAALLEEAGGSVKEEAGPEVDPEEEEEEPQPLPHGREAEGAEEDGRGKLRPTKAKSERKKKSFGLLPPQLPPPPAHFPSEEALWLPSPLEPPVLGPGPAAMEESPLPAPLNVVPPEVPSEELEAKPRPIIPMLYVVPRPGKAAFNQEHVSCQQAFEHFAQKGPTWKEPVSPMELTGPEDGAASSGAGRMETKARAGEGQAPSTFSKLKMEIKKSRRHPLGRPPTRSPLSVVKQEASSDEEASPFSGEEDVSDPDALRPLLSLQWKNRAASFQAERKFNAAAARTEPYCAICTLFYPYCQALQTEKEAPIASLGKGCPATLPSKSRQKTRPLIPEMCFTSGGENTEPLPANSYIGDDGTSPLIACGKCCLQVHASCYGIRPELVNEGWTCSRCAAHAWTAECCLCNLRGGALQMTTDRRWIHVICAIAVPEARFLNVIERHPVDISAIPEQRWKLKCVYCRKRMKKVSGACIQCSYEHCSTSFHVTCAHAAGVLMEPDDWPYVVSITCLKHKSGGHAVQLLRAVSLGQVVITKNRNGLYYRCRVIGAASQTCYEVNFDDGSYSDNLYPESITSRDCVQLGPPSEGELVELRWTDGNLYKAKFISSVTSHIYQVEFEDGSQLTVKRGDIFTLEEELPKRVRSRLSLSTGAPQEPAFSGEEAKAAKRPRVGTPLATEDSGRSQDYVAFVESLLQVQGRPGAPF
UniProt P03372: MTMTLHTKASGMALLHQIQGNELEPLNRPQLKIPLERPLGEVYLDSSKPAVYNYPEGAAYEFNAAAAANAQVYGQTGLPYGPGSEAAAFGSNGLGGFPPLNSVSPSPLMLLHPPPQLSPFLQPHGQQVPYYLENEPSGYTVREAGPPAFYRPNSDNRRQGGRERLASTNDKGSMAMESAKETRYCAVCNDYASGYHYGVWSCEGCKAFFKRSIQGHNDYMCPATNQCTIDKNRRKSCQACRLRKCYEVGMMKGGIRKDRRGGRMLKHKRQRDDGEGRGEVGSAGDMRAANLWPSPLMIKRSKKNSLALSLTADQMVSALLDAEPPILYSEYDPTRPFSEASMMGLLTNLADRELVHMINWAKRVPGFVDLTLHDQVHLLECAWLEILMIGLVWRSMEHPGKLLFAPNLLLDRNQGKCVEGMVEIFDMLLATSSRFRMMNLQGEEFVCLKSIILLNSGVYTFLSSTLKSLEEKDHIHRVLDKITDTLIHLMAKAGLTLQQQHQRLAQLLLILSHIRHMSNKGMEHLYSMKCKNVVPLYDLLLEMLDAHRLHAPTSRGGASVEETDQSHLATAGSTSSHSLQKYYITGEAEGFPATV
UniProt P51532: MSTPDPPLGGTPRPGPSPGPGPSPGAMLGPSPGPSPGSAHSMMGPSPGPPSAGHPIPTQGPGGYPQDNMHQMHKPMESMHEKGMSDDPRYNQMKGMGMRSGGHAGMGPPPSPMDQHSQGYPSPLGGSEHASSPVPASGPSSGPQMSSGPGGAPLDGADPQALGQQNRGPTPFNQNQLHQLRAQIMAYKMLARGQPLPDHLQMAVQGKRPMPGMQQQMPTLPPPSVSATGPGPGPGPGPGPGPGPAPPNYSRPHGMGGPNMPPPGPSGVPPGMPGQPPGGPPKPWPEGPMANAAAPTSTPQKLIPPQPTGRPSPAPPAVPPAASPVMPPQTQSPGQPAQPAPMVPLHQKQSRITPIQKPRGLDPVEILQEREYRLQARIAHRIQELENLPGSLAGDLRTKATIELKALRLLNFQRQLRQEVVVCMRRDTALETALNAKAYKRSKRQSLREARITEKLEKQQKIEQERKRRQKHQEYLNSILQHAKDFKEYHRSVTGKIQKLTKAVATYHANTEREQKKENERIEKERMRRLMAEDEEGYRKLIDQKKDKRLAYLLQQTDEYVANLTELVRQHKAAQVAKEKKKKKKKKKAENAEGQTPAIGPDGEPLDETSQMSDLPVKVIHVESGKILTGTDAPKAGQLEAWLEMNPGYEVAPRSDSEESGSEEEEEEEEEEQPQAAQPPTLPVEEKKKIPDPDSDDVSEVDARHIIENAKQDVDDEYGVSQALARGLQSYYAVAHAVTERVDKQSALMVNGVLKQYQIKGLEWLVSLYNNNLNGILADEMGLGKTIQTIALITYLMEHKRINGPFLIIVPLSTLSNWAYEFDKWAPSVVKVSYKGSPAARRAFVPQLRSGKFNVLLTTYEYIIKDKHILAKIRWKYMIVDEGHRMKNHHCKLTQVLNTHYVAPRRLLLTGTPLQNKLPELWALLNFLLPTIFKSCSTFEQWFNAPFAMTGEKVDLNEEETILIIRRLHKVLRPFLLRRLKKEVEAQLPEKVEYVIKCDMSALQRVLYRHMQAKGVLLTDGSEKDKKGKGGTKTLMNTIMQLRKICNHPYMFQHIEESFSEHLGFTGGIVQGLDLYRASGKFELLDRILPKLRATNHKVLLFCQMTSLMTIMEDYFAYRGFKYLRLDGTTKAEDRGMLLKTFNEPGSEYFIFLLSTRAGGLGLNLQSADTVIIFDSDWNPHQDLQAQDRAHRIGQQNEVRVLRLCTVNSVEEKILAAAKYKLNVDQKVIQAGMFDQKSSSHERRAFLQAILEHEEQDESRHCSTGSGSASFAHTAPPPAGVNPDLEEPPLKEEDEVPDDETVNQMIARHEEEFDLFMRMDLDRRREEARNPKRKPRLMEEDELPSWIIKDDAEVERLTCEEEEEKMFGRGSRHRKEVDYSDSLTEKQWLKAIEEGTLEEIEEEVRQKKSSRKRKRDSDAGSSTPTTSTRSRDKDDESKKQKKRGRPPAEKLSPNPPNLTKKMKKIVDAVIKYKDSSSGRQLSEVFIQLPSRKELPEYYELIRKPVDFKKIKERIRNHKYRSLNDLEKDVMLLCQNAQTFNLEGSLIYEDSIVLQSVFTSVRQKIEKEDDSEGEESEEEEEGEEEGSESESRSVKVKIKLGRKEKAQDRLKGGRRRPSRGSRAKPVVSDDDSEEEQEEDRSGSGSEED
UniProt Q86U86: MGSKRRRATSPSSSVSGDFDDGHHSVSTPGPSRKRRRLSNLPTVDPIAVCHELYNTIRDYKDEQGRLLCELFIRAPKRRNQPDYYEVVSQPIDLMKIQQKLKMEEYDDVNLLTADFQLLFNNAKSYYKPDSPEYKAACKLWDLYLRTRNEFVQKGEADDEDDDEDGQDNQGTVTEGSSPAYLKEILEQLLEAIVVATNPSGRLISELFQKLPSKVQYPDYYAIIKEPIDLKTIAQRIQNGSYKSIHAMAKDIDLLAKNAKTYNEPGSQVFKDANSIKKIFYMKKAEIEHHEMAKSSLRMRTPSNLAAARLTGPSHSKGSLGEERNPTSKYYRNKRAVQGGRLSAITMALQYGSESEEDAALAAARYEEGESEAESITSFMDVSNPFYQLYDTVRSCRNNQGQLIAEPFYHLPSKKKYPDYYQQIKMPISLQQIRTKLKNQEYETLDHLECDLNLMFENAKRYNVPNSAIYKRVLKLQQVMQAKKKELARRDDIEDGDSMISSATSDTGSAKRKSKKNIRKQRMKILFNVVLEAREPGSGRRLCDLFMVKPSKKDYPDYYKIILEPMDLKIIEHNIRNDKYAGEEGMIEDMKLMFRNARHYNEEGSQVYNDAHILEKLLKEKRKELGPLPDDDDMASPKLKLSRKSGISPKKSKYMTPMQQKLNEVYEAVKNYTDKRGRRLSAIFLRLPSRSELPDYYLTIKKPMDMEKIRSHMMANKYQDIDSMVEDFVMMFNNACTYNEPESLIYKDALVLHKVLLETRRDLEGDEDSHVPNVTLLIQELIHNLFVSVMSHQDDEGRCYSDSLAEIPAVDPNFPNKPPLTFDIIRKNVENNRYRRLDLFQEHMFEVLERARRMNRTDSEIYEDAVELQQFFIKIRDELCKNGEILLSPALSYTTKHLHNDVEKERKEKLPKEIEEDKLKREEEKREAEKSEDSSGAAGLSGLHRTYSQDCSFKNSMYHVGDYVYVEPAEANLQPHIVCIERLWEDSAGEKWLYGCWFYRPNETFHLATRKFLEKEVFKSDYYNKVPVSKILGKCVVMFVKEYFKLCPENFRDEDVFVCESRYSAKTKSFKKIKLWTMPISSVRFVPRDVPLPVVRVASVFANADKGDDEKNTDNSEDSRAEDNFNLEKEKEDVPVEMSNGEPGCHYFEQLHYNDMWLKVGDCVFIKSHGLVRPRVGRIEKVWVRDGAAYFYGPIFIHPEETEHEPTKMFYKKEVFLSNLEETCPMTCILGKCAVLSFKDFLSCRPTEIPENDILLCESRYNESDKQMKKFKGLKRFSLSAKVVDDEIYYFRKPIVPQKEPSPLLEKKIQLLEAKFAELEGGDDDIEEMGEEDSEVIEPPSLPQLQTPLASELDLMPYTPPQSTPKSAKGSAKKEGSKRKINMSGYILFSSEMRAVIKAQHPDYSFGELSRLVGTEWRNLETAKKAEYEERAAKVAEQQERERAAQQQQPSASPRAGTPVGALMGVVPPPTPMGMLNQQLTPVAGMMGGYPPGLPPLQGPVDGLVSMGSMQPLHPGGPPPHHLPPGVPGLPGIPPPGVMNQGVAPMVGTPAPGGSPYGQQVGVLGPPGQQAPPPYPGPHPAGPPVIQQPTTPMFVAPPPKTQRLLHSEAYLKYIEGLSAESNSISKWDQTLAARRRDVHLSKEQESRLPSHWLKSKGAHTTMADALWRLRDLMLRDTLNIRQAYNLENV

Key:
[1] = target: JMJD2B (endogenous) (human (endogenous in T-47D)) (UniProt O94953); experiment: co-IP; nuclear lysates of T-47D cells immunoprecipitated with control IgG or antibodies to endogenous proteins on protein A magnetic beads, 4°C overnight, NP-40 IP lysis buffer (50 mM Tris-HCl pH 7.6, 150 mM NaCl, 1% NP-40, 1 mM EDTA), sonicated; with or without estrogen stimulation; with or without Benzonase
[2] = target: T1, JMJD2C (endogenous) (human (endogenous in T-47D)) (UniProt Q9H3R0); experiment: as above
T1 sequence: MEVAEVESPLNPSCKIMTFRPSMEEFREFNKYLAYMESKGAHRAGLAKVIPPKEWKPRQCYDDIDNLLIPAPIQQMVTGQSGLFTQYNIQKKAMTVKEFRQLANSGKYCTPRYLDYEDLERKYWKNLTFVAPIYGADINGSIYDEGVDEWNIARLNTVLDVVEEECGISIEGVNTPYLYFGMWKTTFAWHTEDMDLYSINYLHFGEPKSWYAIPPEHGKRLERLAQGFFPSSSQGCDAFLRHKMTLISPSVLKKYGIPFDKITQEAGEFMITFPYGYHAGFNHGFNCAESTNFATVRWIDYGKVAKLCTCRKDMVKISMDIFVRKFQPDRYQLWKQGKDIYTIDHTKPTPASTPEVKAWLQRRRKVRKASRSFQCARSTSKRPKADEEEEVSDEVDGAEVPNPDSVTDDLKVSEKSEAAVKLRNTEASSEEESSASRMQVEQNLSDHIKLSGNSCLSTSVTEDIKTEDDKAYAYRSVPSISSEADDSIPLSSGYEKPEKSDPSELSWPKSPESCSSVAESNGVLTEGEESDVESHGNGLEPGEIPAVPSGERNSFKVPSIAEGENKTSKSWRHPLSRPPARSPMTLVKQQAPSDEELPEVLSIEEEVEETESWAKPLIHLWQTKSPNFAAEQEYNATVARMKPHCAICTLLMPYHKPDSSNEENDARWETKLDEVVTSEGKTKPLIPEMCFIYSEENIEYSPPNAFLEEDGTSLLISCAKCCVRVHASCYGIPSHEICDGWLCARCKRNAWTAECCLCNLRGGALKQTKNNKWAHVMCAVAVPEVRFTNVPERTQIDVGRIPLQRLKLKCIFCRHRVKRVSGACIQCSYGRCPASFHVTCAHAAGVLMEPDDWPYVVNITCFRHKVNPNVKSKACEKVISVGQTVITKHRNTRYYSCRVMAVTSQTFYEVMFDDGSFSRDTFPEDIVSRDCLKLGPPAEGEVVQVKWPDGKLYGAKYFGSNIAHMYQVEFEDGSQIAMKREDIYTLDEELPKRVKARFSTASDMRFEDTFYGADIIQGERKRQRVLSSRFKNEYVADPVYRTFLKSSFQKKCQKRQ

[3] = target: T2, JMJD2A (endogenous) (human (endogenous in T-47D)) (UniProt O75164); experiment: as above
T2 sequence: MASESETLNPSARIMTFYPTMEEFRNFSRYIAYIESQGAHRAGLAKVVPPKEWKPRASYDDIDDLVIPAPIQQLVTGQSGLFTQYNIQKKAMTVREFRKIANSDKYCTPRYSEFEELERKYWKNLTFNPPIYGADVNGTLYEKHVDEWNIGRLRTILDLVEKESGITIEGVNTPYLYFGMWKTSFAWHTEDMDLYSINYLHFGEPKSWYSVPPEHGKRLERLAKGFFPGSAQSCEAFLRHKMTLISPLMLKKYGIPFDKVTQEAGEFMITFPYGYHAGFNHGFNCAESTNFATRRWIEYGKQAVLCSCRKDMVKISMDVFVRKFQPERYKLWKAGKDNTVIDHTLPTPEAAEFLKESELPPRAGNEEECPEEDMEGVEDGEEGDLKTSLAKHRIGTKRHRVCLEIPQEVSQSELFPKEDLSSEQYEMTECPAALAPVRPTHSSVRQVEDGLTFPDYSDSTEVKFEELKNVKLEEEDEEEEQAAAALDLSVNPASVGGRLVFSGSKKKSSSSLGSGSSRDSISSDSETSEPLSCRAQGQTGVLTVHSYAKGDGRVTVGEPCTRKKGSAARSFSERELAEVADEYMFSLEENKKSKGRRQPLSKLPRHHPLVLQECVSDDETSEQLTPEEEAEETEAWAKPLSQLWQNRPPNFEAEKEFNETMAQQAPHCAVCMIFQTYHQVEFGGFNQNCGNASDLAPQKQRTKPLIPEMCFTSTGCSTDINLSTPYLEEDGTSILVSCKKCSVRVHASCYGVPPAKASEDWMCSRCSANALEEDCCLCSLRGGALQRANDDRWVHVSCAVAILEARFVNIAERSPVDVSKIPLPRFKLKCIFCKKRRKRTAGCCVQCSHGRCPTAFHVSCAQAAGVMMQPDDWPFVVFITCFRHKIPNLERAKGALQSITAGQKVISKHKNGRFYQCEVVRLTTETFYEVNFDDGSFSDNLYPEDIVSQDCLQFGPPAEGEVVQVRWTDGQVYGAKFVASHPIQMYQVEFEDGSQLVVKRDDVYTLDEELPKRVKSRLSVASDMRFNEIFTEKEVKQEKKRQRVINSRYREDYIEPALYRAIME

MYC-tagged ERα = MYC-tagged ERα (UniProt P03372); experiment: co-IP; 293T cells co-transfected with FLAG-JMJD2B (or FLAG-ΔFeJMJD2B) and MYC-ERα or empty vector; α-MYC immunoprecipitates blotted with α-FLAG antibody

Substance: BRG1 ATPase (from UniProt P51532 1-1647)
- binding [1]: binds
- binding [2]: binds
- binding [3]: binds

Substance: ERα (endogenous) (from UniProt P03372 1-595) (receptor)
- binding [1]: binds
- binding [2]: binds
- binding [3]: binds

Substance: FLAG-tagged JMJD2B (from UniProt O94953 1-1096)
- binding (MYC-tagged ERα): binds

Substance: FLAG-ΔFeJMJD2B (from UniProt O94953 1-1096)
- binding (MYC-tagged ERα): binds

Substance: Polybromo1 (from UniProt Q86U86 1-1689)
- binding [1]: binds
- binding [2]: binds
- binding [3]: binds

Substance: p300 (from UniProt Q09472 1-2414)
- binding [1]: no binding
